PubChem BioAssay AID743454 – Peter MacCallum Cancer Centre | 2014
Assay: 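Search for knock-downs that restore vorinostat killing in resistant colon cancer cells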 (primary screen). System: human HCT116-VR colon cancer cells, selected for vorinostat resistance. Knock-down reagent: siRNA pool against human genes, 40 nM siRNA pool. Timing: vorinostat for 24 h, read-out about 72 h after transfection. Treatment: vorinostat at 2.5 µM final. Detection: 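Two measures, CellTiter-Fluor viability and luminescent caspase 3/7 activity, each as fold change against same-plate mock wells, mean of duplicates, then screen-wide robust z-score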. Reading the numbers: viability robust z-score: higher = more viable cells than screen typical; caspase robust z-score: higher = more caspase 3/7 activity than screen typical. Call rule: 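Hits are knock-downs in viability class RV1/RV2 or caspase class CA1/CA2, excluding ones that killed cells in the no-drug cell-count arm; hits then retested with single siRNAs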.
The whole screen tested about 18,000 reagents; below is a random part of them. In the full data, 450 (2.5%) got an active call. 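Single biological run; no consistent viability z cut-off exists, so the class columns, not z-scores, define the calls.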 Unmarked entries are inactive. No sequences are given here.

| Gene | viability hit class | caspase hit class | viability robust z-score | caspase robust z-score |
| --- | --- | --- | --- | --- |
| SH3KBP1 | no change | no change | 0.98 | 0.39 |
| MEST | no change | no change | 0 | 1.23 |
| BCO1 | no change | no change | 0.6 | -0.16 |
| LRRC41 | no change | no change | 0.48 | -0.81 |
| PKNOX2 | no change | no change | 0.41 | -0.87 |
| AQR | no change (active) | CA2 (caspase activation) | -3.85 | 5.27 |
| FUT3 | no change | no change | 0.78 | -0.45 |
| DCAF16 | no change | no change | 0.24 | -0.68 |
| ZNF415 | no change | no change | -0.42 | 1.19 |

Next part; the last 2 above are carried over.
| Gene | viability hit class | caspase hit class | viability robust z-score | caspase robust z-score |
| --- | --- | --- | --- | --- |
| DCAF16 | no change | no change | 0.24 | -0.68 |
| ZNF415 | no change | no change | -0.42 | 1.19 |
| VIL1 | no change | no change | 0.36 | 0.08 |
| AURKB | no change | no change | -2.54 | 0.7 |
| CADPS2 | no change | no change | -0.88 | 1.14 |
| WBP11 | no change | no change | -3.08 | -1.25 |
| KCNK10 | no change | no change | 0 | 0.05 |
| ACO2 | RV2 (reduced viability) (active) | no change | -3.17 | -1.21 |
| PTPN1 | no change | no change | 1.31 | -0.22 |
| FAM169BP | no change | no change | -0.16 | 1.96 |
| SUPT20H | no change | no change | -0.55 | 0.58 |
| IL1RAPL1 | no change | no change | 0.62 | -0.94 |
| ACHE | no change | no change | 0.4 | -0.82 |
| HYI | no change | no change | 0.12 | -0.2 |
| TRNP1 | no change | no change | -0.2 | 0.5 |
| TCEAL6 | no change | no change | 0.21 | 0.14 |
